PubChem BioAssay AID602196 – INSERM, 2012
Test: 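Modifiers of cisplatin sensitivity in A549 cells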. System: human A549 lung cancer cells. Knock-down reagent: siRNA pair against human genes. Timing: 48 h transfection before cisplatin; time from cisplatin to read-out not stated. Challenge: cisplatin at a dose killing half of control-siRNA cells; exact dose and duration not given. Measurement: 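Cisplatin cell death as a shift from the 50% death seen with control siRNA; siRNAs toxic or growth-blocking alone scored 0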. Direction: two-siRNA summed score (-2 to +2): higher = both siRNAs protect from cisplatin killing; -2 means both sensitise. Hit rule: 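Each siRNA scores 0 if harmful alone by LDH or WST-1, otherwise +1 if it reduces and -1 if it increases cisplatin killing; a gene is active when both siRNAs agree (sum +2 or -2)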. Calls: active = both siRNAs shift cisplatin killing the same way; inactive = no consistent shift, or siRNA harmful alone.
Shown is an unselected part of about 23,000 deposited reagents. In the full data, 455 (2%) were called active. 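Active includes both protection and sensitisation; some change values fall well beyond the stated -50 to +50 range.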 Entries without a mark were called inactive. The numbers tell different reagents against one gene apart. Further read-outs or replicates are left out here. Reagent sequences are not shown. The record does not give: the amount of reagent.

two-siRNA summed score (-2 to +2), by target gene and reagent
CYP4F8 (cytochrome P450 family 4 subfamily F member 8): #1 0
MRNIP (MRN complex interacting protein): #1 0; #2 1
ZFYVE28 (zinc finger FYVE-type containing 28): #1 0
LOC387890: #1 1
NR6A1 (nuclear receptor subfamily 6 group A member 1): #1 0
C20orf204 (chromosome 20 open reading frame 204): #1 0
LOC441115: #1 2 (active)
VWA3B (von Willebrand factor A domain containing 3B): #1 0
LOC441363: #1 -1
VCPKMT (valosin containing protein lysine methyltransferase): #1 0
BCL9 (BCL9 transcription coactivator): #1 1
FMNL2 (formin like 2): #1 0
LOC402103: #1 0
GULP1 (GULP PTB domain containing engulfment adaptor 1): #1 0
SH2D1B (SH2 domain containing 1B): #1 0
SH2D4A (SH2 domain containing 4A): #1 0
TRIM49D1 (tripartite motif containing 49D1): #1 1
LOC401014: #1 0
C1QB (complement C1q B chain): #1 0
LOC344165: #1 1
CKMT2 (creatine kinase, mitochondrial 2): #1 1
C19orf48P (chromosome 19 open reading frame 48, pseudogene): #1 0
EPHB2 (EPH receptor B2): #1 0
LOC392226 (serine/threonine-protein kinase PLK1-like): #1 0
ZNF625 (zinc finger protein 625): #1 0
SMIM22 (small integral membrane protein 22): #1 1
TXNRD2 (thioredoxin reductase 2): #1 -2 (active)
LOC388519: #1 0
RPL9 (ribosomal protein L9): #1 0
STX2 (syntaxin 2): #1 1
PKHD1 (PKHD1 ciliary IPT domain containing fibrocystin/polyductin): #1 0
RGS1 (regulator of G protein signaling 1): #1 0
ARGLU1-DT (ARGLU1 divergent transcript): #1 1
IGFBP7 (insulin like growth factor binding protein 7): #1 0
VPS11 (VPS11 core subunit of CORVET and HOPS complexes): #1 0
CDH1 (cadherin 1): #1 0

5 entries from above, sorted by “two-siRNA summed score (-2 to +2)”, highest first:
Target gene	reagent no.	two-siRNA summed score (-2 to +2)
CKMT2 (creatine kinase, mitochondrial 2)	1	1
C19orf48P (chromosome 19 open reading frame 48, pseudogene)	1	0
EPHB2 (EPH receptor B2)	1	0
LOC392226 (serine/threonine-protein kinase PLK1-like)	1	0
ZNF625 (zinc finger protein 625)	1	0

The listing continues.
two-siRNA summed score (-2 to +2), by target gene and reagent
SMPDL3B (sphingomyelin phosphodiesterase acid like 3B): #1 0
PEX10 (peroxisomal biogenesis factor 10): #1 0
LOC441533: #1 0
VSTM2A (V-set and transmembrane domain containing 2A): #1 -1
DCTN5 (dynactin subunit 5): #1 0
MRPS17 (mitochondrial ribosomal protein S17): #1 -1
NCF4 (neutrophil cytosolic factor 4): #1 0
LOC440385: #1 0
GCAT (glycine C-acetyltransferase): #1 0
LOC439963: #1 0
TUBGCP5 (tubulin gamma complex component 5): #1 -1
PTP4A3 (protein tyrosine phosphatase 4A3): #1 -1
LOC402523: #1 1
PPP1R14C (protein phosphatase 1 regulatory inhibitor subunit 14C): #1 0
EIF5 (eukaryotic translation initiation factor 5): #1 0
SOX6 (SRY-box transcription factor 6): #1 1
HSPBP1 (HSPA (Hsp70) binding protein 1): #1 1
CENPBD1P (CENPB DNA-binding domain containing 1, pseudogene): #1 1
HAUS6 (HAUS augmin like complex subunit 6): #1 0
CCL15 (C-C motif chemokine ligand 15): #1 1
